Results reported in article PMC8602370.
These are yes or no findings as the source states them, for the method shown. Where a sequence is shown, tags or fusion partners need not be part of it.

Sequences of proteins named here, by UniProt entry; tags and fusion partners are left off. A change or cut given only in a name is not applied to a line headed by its entry.
UniProt P09874: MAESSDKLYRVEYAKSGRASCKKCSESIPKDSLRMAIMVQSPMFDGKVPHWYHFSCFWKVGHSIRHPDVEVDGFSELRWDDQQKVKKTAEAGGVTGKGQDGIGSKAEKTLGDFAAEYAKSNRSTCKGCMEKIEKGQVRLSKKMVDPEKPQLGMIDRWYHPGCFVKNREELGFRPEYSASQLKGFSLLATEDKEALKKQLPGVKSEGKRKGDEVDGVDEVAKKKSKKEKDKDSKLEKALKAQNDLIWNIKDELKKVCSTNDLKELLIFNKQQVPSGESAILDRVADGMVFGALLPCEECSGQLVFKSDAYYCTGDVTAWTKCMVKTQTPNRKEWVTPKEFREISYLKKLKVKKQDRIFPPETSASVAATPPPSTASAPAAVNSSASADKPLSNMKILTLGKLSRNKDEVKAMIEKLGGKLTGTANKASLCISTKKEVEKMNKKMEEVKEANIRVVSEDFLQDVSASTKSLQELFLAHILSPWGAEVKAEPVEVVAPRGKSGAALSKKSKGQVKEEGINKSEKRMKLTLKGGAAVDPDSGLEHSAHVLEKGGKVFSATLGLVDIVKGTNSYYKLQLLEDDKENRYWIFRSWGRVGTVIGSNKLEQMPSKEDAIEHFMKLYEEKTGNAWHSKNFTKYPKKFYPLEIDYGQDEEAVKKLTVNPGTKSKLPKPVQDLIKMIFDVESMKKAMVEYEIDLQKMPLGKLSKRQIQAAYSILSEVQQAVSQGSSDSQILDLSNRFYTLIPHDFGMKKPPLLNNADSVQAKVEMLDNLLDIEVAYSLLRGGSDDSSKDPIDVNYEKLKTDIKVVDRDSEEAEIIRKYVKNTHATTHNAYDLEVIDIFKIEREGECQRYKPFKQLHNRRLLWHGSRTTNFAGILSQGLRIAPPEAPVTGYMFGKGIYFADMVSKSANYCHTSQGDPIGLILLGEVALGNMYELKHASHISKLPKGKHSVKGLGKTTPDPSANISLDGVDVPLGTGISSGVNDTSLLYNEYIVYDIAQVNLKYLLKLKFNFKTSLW

Target: T1, Histone PARylation Factor 1 (HPF1) (human) (UniProt Q9NWY4)
T1 sequence: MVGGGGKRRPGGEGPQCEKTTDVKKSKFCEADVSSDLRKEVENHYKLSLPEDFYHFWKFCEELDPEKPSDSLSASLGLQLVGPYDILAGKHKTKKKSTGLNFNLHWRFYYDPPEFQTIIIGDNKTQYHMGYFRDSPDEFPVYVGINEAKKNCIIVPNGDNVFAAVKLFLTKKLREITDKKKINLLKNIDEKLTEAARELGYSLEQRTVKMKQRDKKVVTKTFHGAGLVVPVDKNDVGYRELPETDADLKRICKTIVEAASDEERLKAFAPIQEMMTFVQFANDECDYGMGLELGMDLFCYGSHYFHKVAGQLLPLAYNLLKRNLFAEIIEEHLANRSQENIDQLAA
Assay: SPR; HPF1 immobilised on a CM5 chip by amine coupling; PARP1 (800 nM) flowed over in the presence of DNA (800 nM) and EB47 (5 µM); 25 mM HEPES pH 7.4, 250 mM NaCl, 0.1 mM TCEP, 1 mM EDTA, 0.05% Tween20; both purified

PARP1 H826E (from UniProt P09874 1-1014) (enzyme)
binding: no binding (tested: 800 nM)
